Results are given in words; binding and its absence hold for the method and conditions named. Binding seen in cells or lysates may run through a third protein. Some binding calls cover weakened binding; strength is not graded here. For some assays here: Tags and fused reporters may be left off the sequences shown.
T1: protA-TEV-tagged Utp23 (Saccharomyces cerevisiae (yeast)) (UniProt Q12339)
T1 sequence: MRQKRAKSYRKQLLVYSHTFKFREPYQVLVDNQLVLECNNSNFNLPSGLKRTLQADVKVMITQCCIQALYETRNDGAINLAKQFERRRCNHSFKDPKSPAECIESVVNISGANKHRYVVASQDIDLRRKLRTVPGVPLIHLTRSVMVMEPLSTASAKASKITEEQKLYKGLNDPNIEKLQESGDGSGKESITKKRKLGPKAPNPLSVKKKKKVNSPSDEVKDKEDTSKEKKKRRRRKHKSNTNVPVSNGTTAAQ

Amino acid sequences for entries named in this document (tags omitted). A change or cut given only in a name is not applied to a line headed by its entry. Residues count along the entry.
UniProt P25586: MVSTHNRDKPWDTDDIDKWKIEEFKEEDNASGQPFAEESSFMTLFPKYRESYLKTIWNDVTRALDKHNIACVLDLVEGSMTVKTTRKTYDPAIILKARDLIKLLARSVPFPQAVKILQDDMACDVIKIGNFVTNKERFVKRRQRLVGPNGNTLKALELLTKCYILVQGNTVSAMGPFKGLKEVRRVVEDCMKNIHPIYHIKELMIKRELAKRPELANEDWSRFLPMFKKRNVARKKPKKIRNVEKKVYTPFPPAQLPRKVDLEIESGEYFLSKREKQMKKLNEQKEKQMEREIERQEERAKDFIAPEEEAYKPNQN
Krr1ΔC3-FLAG (Saccharomyces cerevisiae (yeast)): residues 1-247 of P25586

T2: protA-TEV-tagged Utp23 (Saccharomyces cerevisiae (yeast)), Q12339
T2 chain: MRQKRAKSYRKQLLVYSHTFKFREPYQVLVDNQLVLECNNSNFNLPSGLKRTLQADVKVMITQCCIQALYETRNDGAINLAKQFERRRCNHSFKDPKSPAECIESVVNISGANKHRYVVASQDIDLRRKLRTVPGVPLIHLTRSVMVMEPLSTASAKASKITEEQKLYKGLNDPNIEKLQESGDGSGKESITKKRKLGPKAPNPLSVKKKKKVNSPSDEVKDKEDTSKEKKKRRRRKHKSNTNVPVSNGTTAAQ


Tests used:
Assay in all cases: co-sedimentation; FLAG eluates of the split-tag purifications on a linear 10–40% sucrose gradient (60 mM Tris-HCl pH 8.0, 50 mM NaCl, 2 mM MgCl2), 16 h at 129,300 × g, 4 °C; fractions by SDS-PAGE, MS and northern blot
[1] = target: Krr1 (wild type, second bait of the split-tag purification) (Saccharomyces cerevisiae (yeast)) (UniProt P25586)
[2] = target: Krr1ΔC3-FLAG (Saccharomyces cerevisiae (yeast)) (UniProt P25586)
[3] = target: T1, protA-TEV-tagged Utp23 (Saccharomyces cerevisiae (yeast))
[4] = target: T2, protA-TEV-tagged Utp23 (Saccharomyces …); conditions: remark: other sources report otherwise

| Binder | binding [1] | binding [2] | binding [3] | binding [4] |
| --- | --- | --- | --- | --- |
| Nhp2 (protein, UniProt P32495 1-156) MGKDNKEHKESKESKTVDNYEARMPAVLPFAKPLASKKLNKKVLKTVKKASKAKNVKRGVKEVVKALRKGEKGLVVIAGDISPADVISHIPVLCEDHSVPYIFIPSKQDLGAAGATKRPTSVVFIVPGSNKKKDGKNKEEEYKESFNEVVKEVQAL | binds | binds | binds | – |
| Nop9 (protein, UniProt P47077 1-666) MGKTKTRGRRHQDKQRKDEFEPSSNSAKEHIQQEESTYNDEAEIKETQPQMFFGVLDREELEYFKQAESTLQLDAFEAPEEKFQFVTSIIEEAKGKELKLVTSQITSKLMERVILECDETQLKDIFQSFNGVFFGLSCHKYASHVLETLFVRSAALVERELLTPSFDNNEKEGPYVTMENMFLFMLNELKPHLKTMMNHQYASHVLRLLILILSSKTLPNSTKANSTLRSKKSKIARKMIDIKDNDDFNKVYQTPESFKSELRDIITTLYKGFTNGAESRSDISQSTITKFREYSVDKVASPVIQLIIQVEGIFDRDRSFWRLVFNTADEKDPKEESFLEYLLSDPVGSHFLENVIGSARLKYVERLYRLYMKDRIVKLAKRDTTGAFVVRALLEHLKEKDVKQILDAVVPELSMLLNSNMDFGTAIINASNKQGGYLRDDVIAQLIQKYYPEKSDAKNILESCLLLSASTLGNTRDDWPTAEERRRSVFLEQLIDYDDKFLNITIDSMLALPEERLIQMCYHGVFSHVVEHVLQTTRVDIIKRKMLLNILSKESVNLACNVYGSHIMDKLWEFTAKLTLYKERIARALVLETEKVKNSIYGRQVWKNWKLELYVRKMWDWKKLIKEQEFEIFPNSKPLQPKPEKHSRERNNSKEGSAFKKQKHYR | binds | – | binds | – |
| Gar1 (protein, UniProt P28007 1-205) MSFRGGNRGGRGGFRGGFRGGRTGSARSFQQGPPDTVLEMGAFLHPCEGDIVCRSINTKIPYFNAPIYLENKTQVGKVDEILGPLNEVFFTIKCGDGVQATSFKEGDKFYIAADKLLPIERFLPKPKVVGPPKPKNKKKRSGAPGGRGGASMGRGGSRGGFRGGRGGSSFRGGRGGSSFRGGSRGGSFRGGSRGGSRGGFRGGRR | – | – | binds | – |
| Dhr1, Q04217 1-1267 (protein) MGTYRKRFNEKARSGHMAKLKELKRIRNKQFTRQDENDERVENPDSAPAESSTTEPNANAEILEPLTEEEKKMKKRKLQELFTPKESKVSRLKKKRLDKFIEHQLKREERKTIIGKLQDYKIDTSLLTSSKRLGEGRQTKKEEFKEALSLERQGRGNEQTNEILYEEYEPKVWDEYGEGGSSEDDDGEDDFEASFGSMPKPTDNEEKKSSGFIDHRPAKFGGSGLSFGFSNIKVINKESKTPKKKYNWRQRVEMEELKKHGKEDEMDFDTTSEDDDEEEDQEEEDKMHPSENPLEEVESADSETGSEKFDQNDVANEFKDWANQEIKKLEGRDQELVTPTLNIDYKPIIRKEDLDDGLQEAYVPINENSTRKAFYVEVSRSDEIQKARIQLPVFGEEHKIMEAIHHNDVVIICGETGSGKTTQVPQFLYEAGFGAEDSPDYPGMVGITQPRRVAAVSMAERVANELGDHGHKVGYQIRFDSTAKEDTKVKFMTDGVLLREMMHDFKLTKYSSIIIDEAHERNINTDILIGMLSRCVRLRAKLHKENPIEHKKLKLIIMSATLRVSDFSENKTLFPIAPPVLQVDARQFPVSIHFNRRTAFNYTDEAFRKTCKIHQKLPPGAILVFLTGQQEITHMVKRLRKEFPFKKNSKYNKDLETPVSKMGINSKTTDLEAEDIDFSVQVIDQDKFKSAIRYEEDEGNSGNGEDEEDEEEEGFEEVLTEGQTANDPLYVLPLYSLLPTKEQMRVFQKPPQGSRLCIVATNVAETSLTIPGVRYVVDSGRSKERKYNESNGVQSFEVGWVSKASANQRSGRAGRTGPGHCYRLYSSAVFEHDFEQFSKPEILRMPVESIVLQMKSMAIHNIINFPFPTPPDRVALSKAIQLLQYLGALDNKEMITEDGKKMSLFPLSPRFSKMLLVSDEKACLPYIVAIVSALSVGDPFINEFELGINEISRKPNPDENLDDKIREHDESTPGMDPELKKELRSKFYKSRSQFSKLDKFSDVFRLLSVVSAMDYVPKEQKEIFMKKNFLRGKLMEEIVKLRKQLMYIIKSNTSKENIAVVIRNEDLKSDIPSVIQIKLLKQMICAGFVDHVAVRADVLFPDDAKITNRTSIINIPYIPVLATRTPNIEDCFVYIHPTSILNNLGEMPPKYMLYYSLHLGGNNKTRMNTLCDIASTPLANIARKGLLLTYSKPLTGQGLKTVNLSPTERYCYVVPRFGSTVDNDLKIGWDLNPIAVHQKKQKGQWTVIKFITRKGFQTITGEEKEKK | – | – | – | binds |

The next lines start with the values.

| binding [1] | binding [2] | binding [3] | binding [4] | Binder |
| --- | --- | --- | --- | --- |
| binds | no binding | binds | – | Mrd1 (protein, UniProt Q06106 1-887) MSRIIVKGLPVYLTDDNLREHFTKRLRQKHSHQAVNGSGPDLITDVKILRDRNGESRRFGFIGYRNEEDAFDAVEYFNGSFINTSKIEVSMAKSFADPRVPQPMKEKRREALKRFREKEEKLLQEENRKKKKVDENKHSNIDDEIRKNKQLQEFMETMKPSSQVTSWEKVGIDKSIEDEKLKREEEDSSVQGNSLLAHALALKEENNKDEAPNLVIENESDDEYSALNRNRDEDQEDAGEEEKMISISNLKDTDIGLVNDDANSDEKENEKRRNLAQDEKVSDLDWFKQRRVRIKESEAETREKSSSYATEQNESLDTKKEEQPERAVPQKTDEELAIEKINQTGRLFLRNILYTSKEEDFRKLFSPFGELEEVHVALDTRTGQSKGFAYVLFKDSKNAVNAYVELDKQIFQGRLLHILPGEEKKSHRLDEFDLKNMPLKKQKELKRKAAASRQTFSWNSLYMNQDAVLGSVAAKLGLEKSQLIDAENSSSAVKQALAEAHVIGDVRKYFESKGVDLTKFSQLKSTNQRDDKVILVKNFPFGTTREELGEMFLPYGKLERLLMPPAGTIAIVQFRDTTSARAAFTKLSYKRFKDGIIYLERGPKDCFTKPAEADDLINNTSAKEEENPVEVKPSSNDLMEANKDVTEGSSNAHDEDVIDGPTVSIFIKNLNFSTTNQNLTDRFKVFTGFVVAQVKTKPDPKHQGKTLSMGFGFVEFRTKEQANAVIAAMDGTVIDGHKIQLKLSHRQASQSGNTKTKSNKKSGKIIVKNLPFEATRKDVFELFNSFGQLKSVRVPKKFDKSARGFAFVEFLLPKEAENAMDQLHGVHLLGRRLVMQYAEEDAVDAEEEIARMTKKVRKQVATNEMAALRNGGGRKKLDVDDEENEGF |
| – | binds | – | – | Dhr1 (protein, UniProt Q04217 1-1267) MGTYRKRFNEKARSGHMAKLKELKRIRNKQFTRQDENDERVENPDSAPAESSTTEPNANAEILEPLTEEEKKMKKRKLQELFTPKESKVSRLKKKRLDKFIEHQLKREERKTIIGKLQDYKIDTSLLTSSKRLGEGRQTKKEEFKEALSLERQGRGNEQTNEILYEEYEPKVWDEYGEGGSSEDDDGEDDFEASFGSMPKPTDNEEKKSSGFIDHRPAKFGGSGLSFGFSNIKVINKESKTPKKKYNWRQRVEMEELKKHGKEDEMDFDTTSEDDDEEEDQEEEDKMHPSENPLEEVESADSETGSEKFDQNDVANEFKDWANQEIKKLEGRDQELVTPTLNIDYKPIIRKEDLDDGLQEAYVPINENSTRKAFYVEVSRSDEIQKARIQLPVFGEEHKIMEAIHHNDVVIICGETGSGKTTQVPQFLYEAGFGAEDSPDYPGMVGITQPRRVAAVSMAERVANELGDHGHKVGYQIRFDSTAKEDTKVKFMTDGVLLREMMHDFKLTKYSSIIIDEAHERNINTDILIGMLSRCVRLRAKLHKENPIEHKKLKLIIMSATLRVSDFSENKTLFPIAPPVLQVDARQFPVSIHFNRRTAFNYTDEAFRKTCKIHQKLPPGAILVFLTGQQEITHMVKRLRKEFPFKKNSKYNKDLETPVSKMGINSKTTDLEAEDIDFSVQVIDQDKFKSAIRYEEDEGNSGNGEDEEDEEEEGFEEVLTEGQTANDPLYVLPLYSLLPTKEQMRVFQKPPQGSRLCIVATNVAETSLTIPGVRYVVDSGRSKERKYNESNGVQSFEVGWVSKASANQRSGRAGRTGPGHCYRLYSSAVFEHDFEQFSKPEILRMPVESIVLQMKSMAIHNIINFPFPTPPDRVALSKAIQLLQYLGALDNKEMITEDGKKMSLFPLSPRFSKMLLVSDEKACLPYIVAIVSALSVGDPFINEFELGINEISRKPNPDENLDDKIREHDESTPGMDPELKKELRSKFYKSRSQFSKLDKFSDVFRLLSVVSAMDYVPKEQKEIFMKKNFLRGKLMEEIVKLRKQLMYIIKSNTSKENIAVVIRNEDLKSDIPSVIQIKLLKQMICAGFVDHVAVRADVLFPDDAKITNRTSIINIPYIPVLATRTPNIEDCFVYIHPTSILNNLGEMPPKYMLYYSLHLGGNNKTRMNTLCDIASTPLANIARKGLLLTYSKPLTGQGLKTVNLSPTERYCYVVPRFGSTVDNDLKIGWDLNPIAVHQKKQKGQWTVIKFITRKGFQTITGEEKEKK |

Source: paper PMC12095548
